Binding data for one molecule are collected here from PMC7291193.

Amino acid sequences for entries named in this document (tags omitted).
UniProt P03101: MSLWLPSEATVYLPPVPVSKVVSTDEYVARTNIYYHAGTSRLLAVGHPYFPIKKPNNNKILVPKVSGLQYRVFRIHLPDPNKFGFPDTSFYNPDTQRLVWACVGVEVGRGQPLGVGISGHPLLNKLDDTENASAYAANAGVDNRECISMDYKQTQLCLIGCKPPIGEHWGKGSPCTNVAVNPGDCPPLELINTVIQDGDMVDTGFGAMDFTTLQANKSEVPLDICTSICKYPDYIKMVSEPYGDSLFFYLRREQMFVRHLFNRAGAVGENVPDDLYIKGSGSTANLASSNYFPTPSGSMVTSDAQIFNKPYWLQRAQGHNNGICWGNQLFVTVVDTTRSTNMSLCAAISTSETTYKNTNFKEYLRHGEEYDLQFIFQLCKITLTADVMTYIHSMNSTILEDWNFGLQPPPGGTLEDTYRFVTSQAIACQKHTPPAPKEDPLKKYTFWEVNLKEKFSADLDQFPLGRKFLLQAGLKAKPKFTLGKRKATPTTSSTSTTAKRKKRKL

The assay concerns the target HPV L1 protein (major capsid protein L1 of HPV type 16) (human papillomavirus type 16) (UniProt P03101). Description: co-IP; Capturem IP & Co-IP Kit; 600 ug of sperm cell lysate of HPV16 infected subjects incubated with anti-HPV Type 16 L1 monoclonal antibody (CAMVIR-1) 20 min at room temperature, spin column, elution; immunoblot with anti-AQP8 and anti-L1.

Results are given in words; binding and its absence hold for the method and conditions named. Binding seen in cells or lysates may run through a third protein. Some binding calls cover weakened binding; strength is not graded here.

B1: Aquaporin-8 (protein, UniProt O94778 1-261)
chain: MSGEIAMCEPEFGNDKAREPSVGGRWRVSWYERFVQPCLVELLGSALFIFIGCLSVIENGTDTGLLQPALAHGLALGLVIATLGNISGGHFNPAVSLAAMLIGGLNLVMLLPYWVSQLLGGMLGAALAKAVSPEERFWNASGAAFVTVQEQGQVAGALVAEIILTTLLALAVCMGAINEKTKGPLAPFSIGFAVTVDILAGGPVSGGCMNPARAFGPAVVANHWNFHWIYWLGPLLAGLLVGLLIRCFIGDGKTRLILKAR
For the molecule B1, the binding entry is on record as “binds”.
